This note sets out measurements from PMC3956929.

Results are given in words; binding and its absence hold for the method and conditions named. For part of these data: Binding seen in cells or lysates may run through a third protein. Some results given as binding are weak or reduced against the parent protein; the word gives no strength. Tags and fused reporters may be left off the sequences shown.

Assay [1] concerns the target T1, GAL4 DNA-binding domain-fused Drosophila melanogaster Piwi (pDBD-dPiwi) (Drosophila melanogaster), Q9VKM1.
T1 chain: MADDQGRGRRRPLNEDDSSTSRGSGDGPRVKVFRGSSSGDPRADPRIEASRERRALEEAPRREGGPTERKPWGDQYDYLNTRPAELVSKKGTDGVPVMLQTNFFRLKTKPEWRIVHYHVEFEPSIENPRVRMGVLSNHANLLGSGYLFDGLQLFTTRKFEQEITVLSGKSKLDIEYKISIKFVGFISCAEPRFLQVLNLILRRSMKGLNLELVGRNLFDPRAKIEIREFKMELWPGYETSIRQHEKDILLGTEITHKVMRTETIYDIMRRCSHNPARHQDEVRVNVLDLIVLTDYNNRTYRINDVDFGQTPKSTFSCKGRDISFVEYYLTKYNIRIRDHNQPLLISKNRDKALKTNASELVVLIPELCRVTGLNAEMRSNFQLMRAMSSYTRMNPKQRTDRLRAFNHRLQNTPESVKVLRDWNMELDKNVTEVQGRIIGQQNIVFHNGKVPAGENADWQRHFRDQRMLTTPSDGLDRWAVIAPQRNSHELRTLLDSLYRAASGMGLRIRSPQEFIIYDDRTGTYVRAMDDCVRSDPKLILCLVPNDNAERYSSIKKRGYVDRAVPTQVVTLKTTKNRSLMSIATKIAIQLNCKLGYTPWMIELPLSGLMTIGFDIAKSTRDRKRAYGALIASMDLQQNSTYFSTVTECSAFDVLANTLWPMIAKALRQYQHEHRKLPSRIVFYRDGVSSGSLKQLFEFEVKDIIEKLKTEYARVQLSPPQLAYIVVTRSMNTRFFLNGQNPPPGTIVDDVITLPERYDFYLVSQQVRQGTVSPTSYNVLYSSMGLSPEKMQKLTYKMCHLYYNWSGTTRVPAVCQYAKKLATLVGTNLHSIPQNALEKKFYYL
Description: two-hybrid; insect two-hybrid (I2H) in BmN4 cells: GAL4 DBD bait, p65 AD prey, 4xUAS-TATA-Luc reporter, luciferase at 72 h post-transfection, relative to the pUC18 control prey; also in BmN4-SID1 cells 72 h after dsRNA against HP1a, HP1b, Ago3, Siwi, putative piRNA-related genes or GFP (control). The following applies: remark: other sources report otherwise.

Assay [2] addresses T2, Drosophila melanogaster Piwi, BiFC fusion (Drosophila melanogaster), Q9VKM1.
T2 chain: T1 chain
Description: split reporter; BiFC in BmN4 cells; 100 ng of each expression plasmid (fusions in pnVW or pcCW) co-transfected; Venus fluorescence by microscopy. The conditions noted are these: remark: other sources report otherwise.

Assay [3] has as its target T3, Bombyx mori Siwi fused to the split Venus fragment of pnVW (pNV-Siwi) (Bombyx mori) (UniProt A8D8P8).
T3 sequence: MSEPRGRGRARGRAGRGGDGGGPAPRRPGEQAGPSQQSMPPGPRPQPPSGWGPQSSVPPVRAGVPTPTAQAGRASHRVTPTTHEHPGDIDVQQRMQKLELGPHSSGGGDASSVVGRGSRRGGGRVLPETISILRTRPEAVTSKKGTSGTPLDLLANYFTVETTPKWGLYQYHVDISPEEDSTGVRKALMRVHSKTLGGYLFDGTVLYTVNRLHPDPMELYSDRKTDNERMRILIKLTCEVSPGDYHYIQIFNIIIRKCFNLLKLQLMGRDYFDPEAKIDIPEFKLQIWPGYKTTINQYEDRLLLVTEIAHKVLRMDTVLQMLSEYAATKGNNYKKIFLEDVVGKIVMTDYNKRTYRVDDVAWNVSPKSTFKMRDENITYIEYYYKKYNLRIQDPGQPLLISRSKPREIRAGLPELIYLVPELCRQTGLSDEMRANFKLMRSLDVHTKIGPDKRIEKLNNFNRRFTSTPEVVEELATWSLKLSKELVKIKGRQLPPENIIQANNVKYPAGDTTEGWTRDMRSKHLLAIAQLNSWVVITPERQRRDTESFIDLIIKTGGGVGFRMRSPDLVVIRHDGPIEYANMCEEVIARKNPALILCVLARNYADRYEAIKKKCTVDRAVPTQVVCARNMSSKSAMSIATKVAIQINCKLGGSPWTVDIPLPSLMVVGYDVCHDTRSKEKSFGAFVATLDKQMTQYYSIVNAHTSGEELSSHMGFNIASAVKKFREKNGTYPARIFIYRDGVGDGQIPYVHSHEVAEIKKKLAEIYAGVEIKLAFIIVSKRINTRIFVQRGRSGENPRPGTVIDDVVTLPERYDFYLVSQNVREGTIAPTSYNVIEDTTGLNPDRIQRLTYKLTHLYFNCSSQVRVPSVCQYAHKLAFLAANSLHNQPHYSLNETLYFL
Description: split reporter; BiFC in BmN4-SID1 cells 72 h after introduction of dsHP1a, dsHP1b or dsLuc (control); DsRed-VLG as marker of nuage.

B1: p65 activation domain-fused Drosophila melanogaster HP1a, P05205 1-206 (protein)
chain: MGKKIDNPESSAKVSDAEEEEEEYAVEKIIDRRVRKGKVEYYLKWKGYPETENTWEPENNLDCQDLIQQYEASRKDEEKSAASKKDRPSSSAKAKETQGRASSSTSTASKRKSEEPTAPSGNKSKRTTDAEQDTIPVSGSTGFDRGLEAEKILGASDNNGRLTFLIQFKGVDQAEMVPSSVANEKIPRMVIHFYEERLSWYSDNED
As to B1, in assay [1], the binding entry is given as “binds”.

B2: Drosophila melanogaster HP1a, BiFC fusion, P05205 1-206 (protein)
chain: B1 chain
Consider B2, for which the binding result in assay [2] is recorded as “binds”.

B3: Bombyx mori Ago3 fused to the split Cerulean fragment of pcCW (pCC-Ago3) (protein, UniProt A9ZSZ2 1-926)
chain: MADPGKGRGRSLALLQALKKSQMMDSPSQSESQSPESTPEQSTAPSTIASATPSTSGVSIGGRGRAAALMLAKMQQKPGSTTPAIFVPPSSTSAPTAGTGRGFKLLQNLQASQKASSQIASSQVTSSAQSDIKDLTEKMSETSVSAQASSVAKNKYFREVKDTPPVVKKGETGVPIEVTCNYIYLNFKENIVFEYEVKFEPDQDYKHLRFKLLNEHIEHFKEKTFDGTTLYVPHELPDAVRNLVSTNPYDQSKVNVSIIFRRTRRLSEMIHIYNVMFKCIMKDLKLIRFGRQHYNEHAAIQIPQHKLEVWPGYVTAVDEYEGGLMLTLDSTHRVLRTQTVLSLIKEVVQTEGANWKRKMTDILIGASVMTTYNKKLFRVDTIDDKMSPRSTFEKTEKGETVQISFIDYYKKNYGIEIMDWDQPLLISRDTKRMPGSDTPTDFMICLIPELCQLTGLTDDQRSNFRLMKDVATYTRITPNQRHAAFKKYIESVMKNETAKSRLAGWGLSIAPETVNLTARTLPPETLYFGDNVRVPGKPNAEWNSEVTKHSVMQAVDIMRWVLLFTQRDKQVAMDFLSTLKRNCRPMGIMVSDAELVPLANDRTDTYVLALKKCITSSVQLVVAICSTKRDDRYAAIKKVCCADNPVPSQVINARTLMNTNKIRSITQKILLQLNCKLGGTLWSISIPFKSAMIVGIDSYHDPSRRNRSVCSFVASYNQSMTLWYSKVIFQEKGQEIVDGLKCCLVDALTHYLRSNGQLPDRIIIYRDGVGDGQLKLLQQYEIPQMKICFTILGSNYQPTLTYVVVQKRINTRIFLKSRDGYDNPNPGTVVDHCITRRDWYDFLIVSQKVTQGTVTPTHYVVVYDDSGITPDQCQRLTYKMCHLYYNWPGTVRVPAPCQYAHKLSYLVGQCVHAQPSDVLVDKLFFL
For the molecule B3, in assay [3], the binding result is listed as “binds”.
